Data reported in the supplement of paper PMC12823440, “Inhibitors supercharge kinase turnover through native proteolytic circuits” (Nature, 2025).
Counter-ions that a name gives are not always drawn. Some of the results follow. The calls rarely recur for the same compound in another form.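 Kinases were expressed as nanoluciferase fusions in K562 cells and luminescence was read every 4 h between 2 and 18 h as percent of control, DMSO set to 100% and a positive control to 0%. A time point counts as decreased when the signal drops significantly (2 sigma). The hit call is the authors' own, does not follow from the count of time points alone, and its rule is not shown.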

The chains behind the UniProt entries cited, without tags or fusion partners. Where a name states a change or a piece, a line headed by the entry shows the natural chain unless it says otherwise.
UniProt P31749: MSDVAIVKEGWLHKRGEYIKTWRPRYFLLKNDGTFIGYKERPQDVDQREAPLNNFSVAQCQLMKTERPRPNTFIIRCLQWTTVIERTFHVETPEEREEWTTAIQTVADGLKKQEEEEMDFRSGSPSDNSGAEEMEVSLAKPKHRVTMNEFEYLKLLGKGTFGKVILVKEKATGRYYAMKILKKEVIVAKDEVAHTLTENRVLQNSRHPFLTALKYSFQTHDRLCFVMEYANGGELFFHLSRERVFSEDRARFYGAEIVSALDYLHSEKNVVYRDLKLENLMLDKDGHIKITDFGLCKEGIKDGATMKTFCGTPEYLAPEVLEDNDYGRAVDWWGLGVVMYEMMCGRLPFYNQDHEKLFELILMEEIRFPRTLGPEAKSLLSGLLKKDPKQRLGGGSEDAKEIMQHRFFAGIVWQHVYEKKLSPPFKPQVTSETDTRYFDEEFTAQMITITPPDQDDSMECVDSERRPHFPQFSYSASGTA
UniProt Q9UM73: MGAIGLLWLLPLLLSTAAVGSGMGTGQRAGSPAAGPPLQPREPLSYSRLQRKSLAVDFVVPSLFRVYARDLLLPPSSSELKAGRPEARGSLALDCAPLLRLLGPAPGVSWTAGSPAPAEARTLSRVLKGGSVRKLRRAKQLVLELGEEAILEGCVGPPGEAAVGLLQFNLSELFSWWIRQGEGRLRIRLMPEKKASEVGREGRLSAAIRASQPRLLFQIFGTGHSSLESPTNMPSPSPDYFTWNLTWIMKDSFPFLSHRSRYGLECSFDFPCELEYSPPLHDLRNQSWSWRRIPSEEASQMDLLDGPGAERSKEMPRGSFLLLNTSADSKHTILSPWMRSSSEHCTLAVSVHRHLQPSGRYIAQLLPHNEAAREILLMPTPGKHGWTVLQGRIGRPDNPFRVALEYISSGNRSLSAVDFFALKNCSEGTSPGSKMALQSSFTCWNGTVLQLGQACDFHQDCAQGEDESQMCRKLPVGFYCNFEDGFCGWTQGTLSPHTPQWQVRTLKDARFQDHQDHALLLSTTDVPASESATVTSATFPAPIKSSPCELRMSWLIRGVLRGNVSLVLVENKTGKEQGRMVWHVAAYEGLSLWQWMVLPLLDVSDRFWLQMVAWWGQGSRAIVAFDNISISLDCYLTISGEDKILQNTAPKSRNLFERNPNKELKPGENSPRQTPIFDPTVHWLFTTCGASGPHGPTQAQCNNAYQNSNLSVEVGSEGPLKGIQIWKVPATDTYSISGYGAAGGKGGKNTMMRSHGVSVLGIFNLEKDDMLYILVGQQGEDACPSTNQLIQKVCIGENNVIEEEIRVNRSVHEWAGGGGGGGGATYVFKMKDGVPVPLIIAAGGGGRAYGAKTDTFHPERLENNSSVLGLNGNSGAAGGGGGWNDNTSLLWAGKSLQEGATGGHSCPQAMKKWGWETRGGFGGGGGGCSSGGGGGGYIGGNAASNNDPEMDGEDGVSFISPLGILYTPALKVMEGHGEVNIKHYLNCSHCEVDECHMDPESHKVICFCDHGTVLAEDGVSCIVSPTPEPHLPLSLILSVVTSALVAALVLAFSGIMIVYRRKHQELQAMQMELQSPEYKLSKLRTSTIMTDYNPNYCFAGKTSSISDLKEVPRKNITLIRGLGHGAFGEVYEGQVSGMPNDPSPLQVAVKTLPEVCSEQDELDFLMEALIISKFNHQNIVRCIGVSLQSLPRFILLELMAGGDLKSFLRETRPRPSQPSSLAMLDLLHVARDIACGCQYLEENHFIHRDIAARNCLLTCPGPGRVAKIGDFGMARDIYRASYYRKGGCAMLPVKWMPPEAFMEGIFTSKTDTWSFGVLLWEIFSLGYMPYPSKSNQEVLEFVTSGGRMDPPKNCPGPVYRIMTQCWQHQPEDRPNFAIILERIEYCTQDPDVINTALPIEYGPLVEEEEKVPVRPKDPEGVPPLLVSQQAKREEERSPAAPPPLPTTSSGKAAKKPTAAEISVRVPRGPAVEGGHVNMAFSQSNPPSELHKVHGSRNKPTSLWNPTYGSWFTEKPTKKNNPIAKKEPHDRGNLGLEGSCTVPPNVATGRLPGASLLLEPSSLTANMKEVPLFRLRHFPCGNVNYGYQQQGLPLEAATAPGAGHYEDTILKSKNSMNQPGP
UniProt P10398: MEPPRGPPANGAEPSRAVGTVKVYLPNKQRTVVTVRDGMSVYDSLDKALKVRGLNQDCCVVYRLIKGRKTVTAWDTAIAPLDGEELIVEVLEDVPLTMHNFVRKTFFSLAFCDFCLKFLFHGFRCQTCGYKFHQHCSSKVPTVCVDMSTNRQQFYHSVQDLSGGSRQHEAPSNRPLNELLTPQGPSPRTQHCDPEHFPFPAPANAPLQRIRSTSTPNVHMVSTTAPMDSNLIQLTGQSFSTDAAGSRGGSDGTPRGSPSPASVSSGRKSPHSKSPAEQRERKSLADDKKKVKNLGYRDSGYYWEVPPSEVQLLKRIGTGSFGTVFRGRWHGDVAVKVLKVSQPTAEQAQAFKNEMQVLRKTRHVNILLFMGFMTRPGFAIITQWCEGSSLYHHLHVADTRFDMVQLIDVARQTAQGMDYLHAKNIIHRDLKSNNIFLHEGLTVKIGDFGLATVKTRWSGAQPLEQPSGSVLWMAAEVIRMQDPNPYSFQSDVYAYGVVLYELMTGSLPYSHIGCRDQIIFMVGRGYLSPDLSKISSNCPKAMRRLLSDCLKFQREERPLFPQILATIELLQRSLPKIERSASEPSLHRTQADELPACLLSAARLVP
UniProt O14965: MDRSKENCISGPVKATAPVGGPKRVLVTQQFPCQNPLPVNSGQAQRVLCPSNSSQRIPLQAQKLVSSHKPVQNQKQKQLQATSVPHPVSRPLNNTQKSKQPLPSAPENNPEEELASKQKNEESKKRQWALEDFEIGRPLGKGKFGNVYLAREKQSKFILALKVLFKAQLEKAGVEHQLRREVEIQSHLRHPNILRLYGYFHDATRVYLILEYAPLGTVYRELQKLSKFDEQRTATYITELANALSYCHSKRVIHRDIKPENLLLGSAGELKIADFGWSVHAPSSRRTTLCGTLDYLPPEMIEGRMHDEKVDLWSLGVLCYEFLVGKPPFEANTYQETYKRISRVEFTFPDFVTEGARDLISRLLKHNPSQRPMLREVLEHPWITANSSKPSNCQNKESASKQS
UniProt Q96GD4, whole entry: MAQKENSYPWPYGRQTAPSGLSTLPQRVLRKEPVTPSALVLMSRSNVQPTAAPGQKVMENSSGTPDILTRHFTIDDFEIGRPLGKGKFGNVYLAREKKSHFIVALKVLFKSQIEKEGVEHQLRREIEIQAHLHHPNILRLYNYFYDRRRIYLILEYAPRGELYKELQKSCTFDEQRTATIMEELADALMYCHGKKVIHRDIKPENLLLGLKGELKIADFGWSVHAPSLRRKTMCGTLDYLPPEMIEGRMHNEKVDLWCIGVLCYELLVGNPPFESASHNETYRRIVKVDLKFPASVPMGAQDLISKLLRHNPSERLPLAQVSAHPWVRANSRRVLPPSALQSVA
UniProt Q9UQB9: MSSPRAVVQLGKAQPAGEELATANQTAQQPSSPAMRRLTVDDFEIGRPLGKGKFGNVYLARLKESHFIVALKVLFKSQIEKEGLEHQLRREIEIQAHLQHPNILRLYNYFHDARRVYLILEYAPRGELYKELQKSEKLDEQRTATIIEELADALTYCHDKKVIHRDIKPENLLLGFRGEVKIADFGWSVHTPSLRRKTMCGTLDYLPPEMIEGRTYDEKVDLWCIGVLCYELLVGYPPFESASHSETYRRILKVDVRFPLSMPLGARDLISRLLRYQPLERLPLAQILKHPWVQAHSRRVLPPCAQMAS
UniProt P51451: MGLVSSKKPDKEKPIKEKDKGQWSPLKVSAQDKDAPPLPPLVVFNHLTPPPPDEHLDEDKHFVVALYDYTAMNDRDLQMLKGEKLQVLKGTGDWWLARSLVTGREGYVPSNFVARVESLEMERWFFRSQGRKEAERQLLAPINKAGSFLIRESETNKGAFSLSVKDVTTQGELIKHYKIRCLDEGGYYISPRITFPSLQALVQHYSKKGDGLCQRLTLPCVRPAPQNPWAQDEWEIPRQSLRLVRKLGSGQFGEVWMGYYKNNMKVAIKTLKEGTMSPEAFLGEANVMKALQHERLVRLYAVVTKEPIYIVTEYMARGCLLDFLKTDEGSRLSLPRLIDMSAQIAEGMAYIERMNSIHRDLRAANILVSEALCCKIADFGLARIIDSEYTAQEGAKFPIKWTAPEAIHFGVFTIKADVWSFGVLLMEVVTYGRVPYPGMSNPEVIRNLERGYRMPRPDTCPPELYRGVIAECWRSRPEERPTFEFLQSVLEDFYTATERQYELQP
UniProt P15056, whole entry, looked up: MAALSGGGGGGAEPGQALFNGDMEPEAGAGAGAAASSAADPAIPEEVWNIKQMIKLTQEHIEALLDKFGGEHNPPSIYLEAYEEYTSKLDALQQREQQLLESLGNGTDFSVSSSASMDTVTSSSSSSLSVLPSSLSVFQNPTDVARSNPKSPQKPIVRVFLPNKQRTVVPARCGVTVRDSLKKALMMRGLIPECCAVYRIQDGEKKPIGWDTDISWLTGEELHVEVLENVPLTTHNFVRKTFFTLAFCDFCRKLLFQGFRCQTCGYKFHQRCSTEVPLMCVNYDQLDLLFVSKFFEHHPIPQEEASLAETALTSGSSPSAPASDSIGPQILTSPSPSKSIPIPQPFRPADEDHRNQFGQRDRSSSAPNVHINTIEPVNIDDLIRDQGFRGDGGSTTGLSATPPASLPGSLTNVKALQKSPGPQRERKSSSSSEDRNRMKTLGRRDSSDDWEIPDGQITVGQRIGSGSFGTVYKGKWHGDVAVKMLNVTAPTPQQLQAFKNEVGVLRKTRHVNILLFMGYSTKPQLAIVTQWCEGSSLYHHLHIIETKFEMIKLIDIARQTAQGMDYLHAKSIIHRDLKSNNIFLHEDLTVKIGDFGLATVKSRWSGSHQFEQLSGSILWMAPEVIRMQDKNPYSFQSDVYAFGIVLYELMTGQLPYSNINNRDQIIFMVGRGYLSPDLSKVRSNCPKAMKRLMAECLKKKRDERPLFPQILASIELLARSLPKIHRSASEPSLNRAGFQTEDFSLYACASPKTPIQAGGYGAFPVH
UniProt P51813: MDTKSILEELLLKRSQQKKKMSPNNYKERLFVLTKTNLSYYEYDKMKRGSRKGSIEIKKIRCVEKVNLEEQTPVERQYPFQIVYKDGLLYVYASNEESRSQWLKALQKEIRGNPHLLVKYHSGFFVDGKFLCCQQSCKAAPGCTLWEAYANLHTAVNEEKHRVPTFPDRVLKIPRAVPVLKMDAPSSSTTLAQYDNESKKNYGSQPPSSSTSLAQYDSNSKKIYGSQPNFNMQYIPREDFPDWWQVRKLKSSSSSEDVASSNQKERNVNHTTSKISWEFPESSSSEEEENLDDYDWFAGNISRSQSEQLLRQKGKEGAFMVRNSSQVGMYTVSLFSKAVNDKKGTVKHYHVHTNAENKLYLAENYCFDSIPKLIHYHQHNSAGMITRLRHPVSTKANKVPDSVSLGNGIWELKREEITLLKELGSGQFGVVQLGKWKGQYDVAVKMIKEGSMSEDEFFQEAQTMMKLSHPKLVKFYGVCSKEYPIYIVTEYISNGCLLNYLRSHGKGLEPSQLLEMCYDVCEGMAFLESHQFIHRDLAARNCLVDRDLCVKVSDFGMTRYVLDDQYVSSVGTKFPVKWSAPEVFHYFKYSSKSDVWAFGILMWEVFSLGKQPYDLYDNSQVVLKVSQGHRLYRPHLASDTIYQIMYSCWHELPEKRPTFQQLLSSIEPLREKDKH

Experiments:
Assay in all cases: kinase-Nluc reporter destabilization hit call (1 = scored as downregulated) (binary); higher = compound decreases kinase abundance
Conditions in all cases: K562, 2-18 h
AKT1 = AKT1 (UniProt P31749)
ALK = ALK (UniProt Q9UM73)
ARAF = ARAF (UniProt P10398)
AURKA = AURKA (UniProt O14965)
AURKB = AURKB (UniProt Q96GD4)
AURKC = AURKC (UniProt Q9UQB9)
BLK = BLK (UniProt P51451)
BRAF = BRAF (UniProt P15056)
BMX = BMX (UniProt P51813)

Measured: kinase-Nluc reporter destabilization hit call

CC(C)n1nc(-c2cc3cc(O)ccc3[nH]2)c2c(N)ncnc21 [Torkinib]
inactive: AKT1; 2.5 µM 0 | ALK; 2.5 µM 0 | ARAF; 2.5 µM 0 | AURKA; 2.5 µM 0 | AURKB; 2.5 µM 0 | AURKC; 2.5 µM 0 | BLK; 2.5 µM 0 | BRAF; 2.5 µM 0

C=CC(=O)Nc1cc2c(Nc3ccc(F)c(Cl)c3)ncnc2cc1OCCCN1CCOCC1 [Canertinib (dihydrochloride)]
inactive: AKT1; 2.5 µM 0 | ALK; 2.5 µM 0 | ARAF; 2.5 µM 0 | AURKA; 2.5 µM 0 | AURKB; 2.5 µM 0 | AURKC; 2.5 µM 0 | BLK; 2.5 µM 0 | BRAF; 2.5 µM 0

O=c1ncn2nc(Sc3ccc(F)cc3F)ccc2c1-c1c(Cl)cccc1Cl [Neflamapimod]
inactive: AKT1; 10 µM 0 | ALK; 10 µM 0 | ARAF; 10 µM 0 | AURKA; 10 µM 0 | AURKB; 10 µM 0 | AURKC; 10 µM 0 | BLK; 10 µM 0 | BMX; 10 µM 0 | BRAF; 10 µM 0

CC(C)(C)n1nc(-c2ccc(Cl)cc2)c2c(N)ncnc21
inactive: AKT1; 10 µM 0 | ALK; 10 µM 0 | ARAF; 10 µM 0 | AURKA; 10 µM 0 | AURKB; 10 µM 0 | AURKC; 10 µM 0 | BLK; 10 µM 0 | BMX; 10 µM 0 | BRAF; 10 µM 0

Cc1cc(Nc2cc(N3CCN(C)CC3)nc(/C=C/c3ccccc3)n2)n[nH]1 [ENMD-2076 (Tartrate)]
inactive: AKT1; 2.5 µM 0 | ALK; 2.5 µM 0 | ARAF; 2.5 µM 0 | AURKA; 2.5 µM 0 | AURKB; 2.5 µM 0 | AURKC; 2.5 µM 0 | BLK; 2.5 µM 0 | BMX; 2.5 µM 0 | BRAF; 2.5 µM 0

COc1cc2/c(=N/c3ccc(Br)cc3F)nc[nH]c2cc1OCC1CCN(C)CC1 [Vandetanib]
inactive: AKT1; 2.5 µM 0 | ARAF; 2.5 µM 0 | AURKB; 2.5 µM 0 | BLK; 2.5 µM 0 | BMX; 2.5 µM 0 | BRAF; 2.5 µM 0

Cc1ccc(Nc2nccc(N(C)c3ccc4c(C)n(C)nc4c3)n2)cc1S(N)(=O)=O [Pazopanib (Hydrochloride)]
inactive: AKT1; 10 µM 0 | ALK; 10 µM 0 | ARAF; 10 µM 0 | AURKA; 10 µM 0 | AURKB; 10 µM 0 | AURKC; 10 µM 0 | BLK; 10 µM 0 | BMX; 10 µM 0

CC1(C)CNc2cc(NC(=O)c3cccnc3NCc3ccncc3)ccc21 [Motesanib (Diphosphate)]
inactive: AKT1; 2.5 µM 0 | ALK; 2.5 µM 0 | ARAF; 2.5 µM 0 | AURKA; 2.5 µM 0 | AURKB; 2.5 µM 0 | AURKC; 2.5 µM 0 | BLK; 2.5 µM 0 | BMX; 2.5 µM 0

COc1cc(Nc2c(C#N)cnc3cc(OCCCN4CCN(C)CC4)c(OC)cc23)c(Cl)cc1Cl [Bosutinib]
inactive: AKT1; 2.5 µM 0 | ALK; 2.5 µM 0 | ARAF; 2.5 µM 0 | AURKA; 2.5 µM 0 | AURKB; 2.5 µM 0 | AURKC; 2.5 µM 0 | BLK; 2.5 µM 0 | BRAF; 2.5 µM 0

O=S(=O)(c1cccc2c(O)nccc12)N1CCCNCC1 [Hydroxyfasudil (hydrochloride)]
inactive: AKT1; 10 µM 0 | ALK; 10 µM 0 | ARAF; 10 µM 0 | AURKA; 10 µM 0 | AURKB; 10 µM 0 | AURKC; 10 µM 0 | BLK; 10 µM 0 | BMX; 10 µM 0

CNC(=O)c1cc(Oc2ccc(NC(=O)Nc3ccc(Cl)c(C(F)(F)F)c3)cc2)ccn1 [Sorafenib]
inactive: AKT1; 2.5 µM 0 | ALK; 2.5 µM 0 | ARAF; 2.5 µM 0 | AURKA; 2.5 µM 0 | AURKC; 2.5 µM 0 | BLK; 2.5 µM 0 | BMX; 2.5 µM 0

CCOc1cc2ncc(C#N)c(Nc3ccc(F)c(Cl)c3)c2cc1NC(=O)/C=C/CN(C)C [Pelitinib]
inactive: AKT1; 2.5 µM 0 | ALK; 2.5 µM 0 | ARAF; 2.5 µM 0 | AURKA; 2.5 µM 0 | AURKB; 2.5 µM 0 | AURKC; 2.5 µM 0 | BLK; 2.5 µM 0 | BRAF; 2.5 µM 0

O=C(O)c1ccc(Nc2ncc3c(n2)-c2ccc(Cl)cc2C(c2c(F)cccc2F)=NC3)cc1
inactive: AKT1; 10 µM 0 | ALK; 10 µM 0 | ARAF; 10 µM 0 | AURKA; 10 µM 0 | AURKB; 10 µM 0 | AURKC; 10 µM 0 | BLK; 10 µM 0 | BRAF; 10 µM 0

Three entries from above, ordered by length of the SMILES, smallest number first.
O=S(=O)(c1cccc2c(O)nccc12)N1CCCNCC1 [Hydroxyfasudil (hydrochloride)]
inactive: AKT1; 10 µM 0 | ALK; 10 µM 0 | ARAF; 10 µM 0 | AURKA; 10 µM 0 | AURKB; 10 µM 0 | AURKC; 10 µM 0 | BLK; 10 µM 0 | BMX; 10 µM 0

CCOc1cc2ncc(C#N)c(Nc3ccc(F)c(Cl)c3)c2cc1NC(=O)/C=C/CN(C)C [Pelitinib]
inactive: AKT1; 2.5 µM 0 | ALK; 2.5 µM 0 | ARAF; 2.5 µM 0 | AURKA; 2.5 µM 0 | AURKB; 2.5 µM 0 | AURKC; 2.5 µM 0 | BLK; 2.5 µM 0 | BRAF; 2.5 µM 0

O=C(O)c1ccc(Nc2ncc3c(n2)-c2ccc(Cl)cc2C(c2c(F)cccc2F)=NC3)cc1
inactive: AKT1; 10 µM 0 | ALK; 10 µM 0 | ARAF; 10 µM 0 | AURKA; 10 µM 0 | AURKB; 10 µM 0 | AURKC; 10 µM 0 | BLK; 10 µM 0 | BRAF; 10 µM 0
